# Measured values taken from PubChem BioAssay AID504467 (National Center for Advancing Translational Sciences (NCATS), 2011).
# Out of some 330,000 compounds screened, about 7,700 (2.3%) were called active. Inconclusive results, whose numbers are uncertain, are shown with a selection of clear calls. Calls come from the whole dose curve; as a rule, active = well fitted inhibition curve with a large enough effect; inconclusive = small, poorly fitted or top-dose-only effect, or effect the other way; inactive = flat fitted curve, though single readings scatter. A potency beside an inconclusive call is a rough fit, not a confirmed value.
# Test: qHTS screen for small molecules that inhibit ELG1-dependent DNA repair in human embryonic kidney (HEK293T) cells expressing luciferase-tagged ELG1; note: nearly all actives have a fitted effect of over 55% in size
# Conditions: HEK293T ELG1-luciferase reporter, luminescence, 16 h, DNA damage induced by 5-fluorouridine; series mostly up to 46.1 µM
# How it was run: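 5-Fluorouridine DNA damage + compound/DMSO, 2,000 cells/well, 16 h, 37 °C/5% CO2. ONE-Glo, 30 min RT, luminescence. Readout = decrease in reporter signal.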
# Potency is the fitted concentration of half-maximal effect.
row,SMILES,Potency
1,Cc1cc(C(=O)CN2C(=O)C3CC=CCC3C2=O)c(C)n1-c1ccccc1 (stereo unspecified),"inconclusive: 1.3 µM [activator, full curve]"
2,Cc1cccc(NC(=O)c2cccc(S(=O)(=O)NCc3ccccc3)c2)n1,"inconclusive: 4.61 µM [inhibitor, single point]"
3,O=C(Nc1ccc2c(c1)CCC2)C1CCCO1 (stereo unspecified),"inconclusive: 16.4 µM [activator, single point]"
4,COc1ccc(O[C@H]2C=C[C@@H](c3ccccc3)O[C@@H]2COC(=O)CC/C(C)=N/OC[C@@H](O)[C@H]2O[C@@H]3OC(C)(C)O[C@@H]3[C@H]2O)cc1,"inconclusive: 29.1 µM [inhibitor, single point]"
5,O=C1NCCN/C1=C\C(=O)c1cccc(Br)c1,"inconclusive: 18.3 µM [activator, partial curve]"
6,CN(CCOC(=O)/C=C/c1ccco1)Cc1ccccc1,inactive
7,COC(=O)CSc1ccnc2cc(Cl)ccc12,inactive
8,O=C1CCc2cc(S(=O)(=O)NCCCC(=O)N3CCN(Cc4ccc5c(c4)OCO5)CC3)ccc2N1,"inconclusive: 23.1 µM [inhibitor, partial curve, poor fit]"
9,Cn1c(=O)c2ccccc2n(CC(=O)Nc2ccc3c(c2)OCCO3)c1=O,"inconclusive: 9.2 µM [inhibitor, partial curve]"
10,COc1ccc([N+](=O)[O-])cc1N(CC(=O)N1CCCC1)S(C)(=O)=O,inactive
11,COc1ccc(OC)c(CN2CCC(CNC(=O)Nc3cccc(Cl)c3)CC2)c1,inactive
12,COc1ccccc1NC(=O)c1ccccc1NC(=O)c1ccccc1C(=O)O,inactive
13,COc1ccc(CSCCc2n[nH]c(=S)n2-c2ccccc2)cc1C,"inconclusive: 14.6 µM [inhibitor, partial curve]"
14,Cc1cccc(-c2noc(-c3c(C)noc3C)n2)c1,"inconclusive: 20.6 µM [activator, partial curve, poor fit]"
15,COc1cc(/C=C/C(=O)OCC(=O)N2CCC(Cc3ccccc3)CC2)ccc1O,"inconclusive: 13 µM [inhibitor, partial curve]"
16,Cc1ccc(S(=O)(=O)N/N=C\c2cc3c(cc2Br)OCO3)cc1,inactive
17,C=CCn1c(-c2cccn(Cc3cccc(Cl)c3)c2=O)n[nH]c1=S,inactive
18,Cc1cccc(CCNC(=O)COc2cc(=O)n(C)c3ccccc23)c1,"inconclusive: 20.6 µM [activator, partial curve]"
19,O=c1[nH]c2ccccc2c2oc(CCl)nc12,"inconclusive: 3.26 µM [inhibitor, single point]"
20,CN(C)S(=O)(=O)c1cccc(C(=O)N=C2N=C3C=CC(Cl)=CN3Cc3ccccc32)c1,"inconclusive: 3.66 µM [activator, full curve]"
21,CC(C)(C)OC(=O)N/N=C\c1ccc[nH]1,"inconclusive: 13 µM [activator, partial curve]"

# Single entries from above.
# In Potency, `COc1ccc(O[C@H]2C=C[C@@H](c3ccccc3)O[C@@H]2COC(=O)CC/C(C)=N/OC[C@@H](O)[C@H]2O[C@@H]3OC(C)(C)O[C@@H]3[C@H]2O)cc1` is entered as inconclusive: 29.1 µM [inhibitor, single point]
# In Potency, `Cc1cc(C(=O)CN2C(=O)C3CC=CCC3C2=O)c(C)n1-c1ccccc1` (stereo unspecified) is entered as inconclusive: 1.3 µM [activator, full curve]

# Going on with the list.

row,SMILES,Potency
1,C=CCn1c(C)cc(C(=O)COC(=O)/C=C/c2c(C)nn(C3CCS(=O)(=O)C3)c2Cl)c1C (stereo unspecified),"inconclusive: 25.9 µM [inhibitor, single point]"
2,CCOC(=O)C1CCCN(C(=O)c2ccc3c(c2)NC(=O)C(N2CCOCC2)S3)C1 (stereo unspecified),"inconclusive: 18.4 µM [inhibitor, partial curve, poor fit]"
3,Cc1ccc(/C=N/NC(=O)c2csc3c2CCCC3)cc1,"inconclusive: 18.4 µM [activator, single point]"
4,CCOc1cc(/C=N\NC(N)=O)cc(Br)c1OC(C)C,inactive
5,COc1ccc(-c2c(C#N)c(N)nc3sc(C(=O)c4ccccc4)c(N)c23)cc1,"inconclusive: 29.1 µM [inhibitor, single point]"
6,CC(=O)Nc1ccc(SCC(=O)NC(=O)c2ccc(S(=O)(=O)N(C)C)cc2)cc1,inactive
7,COCCn1c(N)c(C(=O)NCc2cccs2)c2nc3ccccc3nc21,"inconclusive: 20.6 µM [inhibitor, partial curve]"
8,Cc1ccc(/C=C/c2nc3ccccc3c(=O)n2CCc2ccccc2)cc1,"inconclusive: 20.6 µM [inhibitor, partial curve]"
9,O=C(NCc1ccccc1)c1cc(=O)c2ccccc2o1,"inconclusive: 32.6 µM [inhibitor, partial curve, poor fit]"
10,O=S1(=O)C=C(N2CCCCC2)c2ccccc21,inactive
11,CCOC(=O)C1(CCOc2ccccc2)CCN(Cc2ccc(O)cc2)CC1,"inconclusive: 23.1 µM [inhibitor, single point]"
12,COc1cccc(C(C(=O)Nc2ccc(F)cc2)N(C(=O)Cn2nnc3ccccc32)C2CC2)c1 (stereo unspecified),"inconclusive: 18.4 µM [inhibitor, partial curve, poor fit]"
13,Cc1ccc2c(C(=O)N3CCN(c4ccccc4)CC3)cc(-c3cccnc3)nc2c1C,"inconclusive: 23.1 µM [inhibitor, single point]"
14,O=C(NCc1ccc(Cl)cc1)c1cccc2c1C(=O)N(CC1CCCO1)C2 (stereo unspecified),"inconclusive: 29.1 µM [inhibitor, single point]"
15,COc1ccc2c(c1)c1nnc(SC)nc1n2C,"inconclusive: 20.6 µM [activator, single point]"
16,CC(C)c1ccc(NC(=O)CN2C(=O)COc3ccc(S(=O)(=O)N4CCOCC4)cc32)cc1,"inconclusive: 16.4 µM [activator, single point]"
17,CC(C)COc1ccc(CNC(=S)N/N=C/c2ccc([N+](=O)[O-])cc2)cc1,"inconclusive: 29.1 µM [activator, partial curve, poor fit]"
18,N#Cc1cn(-c2ccccc2)nc1-c1ccccc1,"inconclusive: 20.6 µM [activator, single point]"
19,CCN(C[C@H]1N[C@@](Cc2ccccc2)(C(=O)OC)[C@H]2C(=O)N(Cc3ccccc3)C(=O)[C@@H]12)S(=O)(=O)c1ccc(C)cc1,"inconclusive: 23.1 µM [inhibitor, partial curve, poor fit]"
20,Cc1ccc(Sc2c(C)nn(C(=O)CNS(=O)(=O)c3ccc(F)cc3)c2C)cc1,"inconclusive: 16.4 µM [activator, partial curve, poor fit]"
